The entries are a selection whose mix differs from that of the whole data set. For some of these results: At the low end of the ranking the order means little. This is one part of the list. For some of these results: The source does not settle which construct or isoform was used.
Key:
HSF1 = HSF1 (UniProt Q00613); test: DAPPL (digital affinity profiling via proximity ligation, sequencing); settings: 10 mM Tris-HCl pH 7.5, 50 mM NaCl, 1 mM DTT, 4% glycerol, room temperature, 30 min; GST-TFs on glutathione beads, 16-mer random dsDNA library, 0.1% …; high values mean tight binding; double strand, one strand shown; scale: fold enrichment (6-mer frequency, TF over GST control)
ELF2 = target: T1, ELF2 (UniProt Q15723); test: as above; settings: 10 mM Tris-HCl pH 7.5, 50 mM NaCl, 1 mM DTT, 4% glycerol, room temperature, 30 min; GST-TFs on glutathione beads, 16-mer random dsDNA library, 0.1% …; high values mean tight binding; double strand, one strand shown; scale: fold enrichment (6-mer frequency, TF over GST control)
T1 sequence: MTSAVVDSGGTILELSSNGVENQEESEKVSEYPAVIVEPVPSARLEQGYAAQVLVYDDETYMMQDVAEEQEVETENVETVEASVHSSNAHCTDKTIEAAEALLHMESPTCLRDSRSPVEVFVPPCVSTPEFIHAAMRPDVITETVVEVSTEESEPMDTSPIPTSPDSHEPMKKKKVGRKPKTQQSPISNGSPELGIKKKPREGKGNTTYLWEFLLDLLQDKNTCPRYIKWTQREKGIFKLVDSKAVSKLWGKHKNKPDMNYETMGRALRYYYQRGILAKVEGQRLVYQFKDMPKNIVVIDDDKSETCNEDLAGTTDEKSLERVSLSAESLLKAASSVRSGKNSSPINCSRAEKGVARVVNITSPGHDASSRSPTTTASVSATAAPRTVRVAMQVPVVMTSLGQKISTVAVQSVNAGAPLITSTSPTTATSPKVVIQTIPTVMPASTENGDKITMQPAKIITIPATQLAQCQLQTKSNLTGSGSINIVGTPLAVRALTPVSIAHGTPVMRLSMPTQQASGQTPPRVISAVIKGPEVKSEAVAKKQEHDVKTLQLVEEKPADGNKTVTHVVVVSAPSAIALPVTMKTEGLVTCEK

By UniProt entry, the sequences of proteins in these tests, tags left out. Where a name states a change or a piece, a line headed by the entry shows the natural chain unless it says otherwise.
UniProt Q00613: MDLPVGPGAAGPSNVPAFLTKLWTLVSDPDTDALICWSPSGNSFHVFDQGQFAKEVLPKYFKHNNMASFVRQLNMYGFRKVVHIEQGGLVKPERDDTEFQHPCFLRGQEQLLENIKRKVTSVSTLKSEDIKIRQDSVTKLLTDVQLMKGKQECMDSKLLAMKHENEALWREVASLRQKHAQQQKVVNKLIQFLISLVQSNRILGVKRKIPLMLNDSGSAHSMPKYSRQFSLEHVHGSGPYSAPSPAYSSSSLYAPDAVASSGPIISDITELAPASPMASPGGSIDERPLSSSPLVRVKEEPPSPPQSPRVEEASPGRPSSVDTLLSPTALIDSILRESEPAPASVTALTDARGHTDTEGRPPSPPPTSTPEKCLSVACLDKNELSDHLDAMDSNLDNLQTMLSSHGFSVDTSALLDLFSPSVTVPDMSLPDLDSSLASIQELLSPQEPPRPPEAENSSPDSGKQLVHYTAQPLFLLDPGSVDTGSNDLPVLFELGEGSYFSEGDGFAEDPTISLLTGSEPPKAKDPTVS

Sequence: GTGTAG
- binding signal (HSF1): 0.58
- binding signal (ELF2): 0.627

Sequence: GTCGTG
- binding signal (HSF1): 0.309
- binding signal (ELF2): 0.365

Sequence: ACCGTG
- binding signal (HSF1): 0.212
- binding signal (ELF2): 0.233

Sequence: GGTGGG
- binding signal (HSF1): 0.502
- binding signal (ELF2): 0.625

Sequence: AGGCCG
- binding signal (HSF1): 0.412
- binding signal (ELF2): 0.462

Sequence: GCTGAG
- binding signal (HSF1): 0.627
- binding signal (ELF2): 0.648

Sequence: GACTGG
- binding signal (HSF1): 0.658
- binding signal (ELF2): 0.571

Sequence: GTCCGT
- binding signal (HSF1): 0.363
- binding signal (ELF2): 0.516

Sequence: GAGTGC
- binding signal (HSF1): 0.573
- binding signal (ELF2): 0.664

Sequence: AGACTG
- binding signal (HSF1): 0.561
- binding signal (ELF2): 0.486

Sequence: GACGAT
- binding signal (HSF1): 0.952
- binding signal (ELF2): 0.844

Sequence: CCATGT
- binding signal (HSF1): 0.663
- binding signal (ELF2): 0.769

Sequence: GCACCA
- binding signal (HSF1): 0.683
- binding signal (ELF2): 0.8

Sequence: ATCGGG
- binding signal (HSF1): 0.546
- binding signal (ELF2): 0.423

Sequence: GTCGTT
- binding signal (HSF1): 0.532
- binding signal (ELF2): 0.692

Sequence: GAATCG
- binding signal (HSF1): 0.688
- binding signal (ELF2): 0.604

Sequence: CGGCCG
- binding signal (HSF1): 0.647
- binding signal (ELF2): 0.811

Sequence: ACGGGA
- binding signal (HSF1): 0.529
- binding signal (ELF2): 0.559

Sequence: AGCGGG
- binding signal (HSF1): 0.421
- binding signal (ELF2): 0.483

Sequence: GTGGCG
- binding signal (HSF1): 0.581
- binding signal (ELF2): 0.801

Sequence: GCGTCG
- binding signal (HSF1): 0.648
- binding signal (ELF2): 0.753

Sequence: GTGGGC
- binding signal (HSF1): 0.517
- binding signal (ELF2): 0.682

Sequence: GGGCCC
- binding signal (HSF1): 0.585
- binding signal (ELF2): 0.745

Sequence: GCAGTC
- binding signal (HSF1): 0.367
- binding signal (ELF2): 0.45

Sequence: GAACCG
- binding signal (HSF1): 0.562
- binding signal (ELF2): 0.831

Sequence: CAGACC
- binding signal (HSF1): 0.673
- binding signal (ELF2): 0.773

Sequence: GTGCCA
- binding signal (HSF1): 0.655
- binding signal (ELF2): 0.748

Sequence: CGGAGA
- binding signal (HSF1): 0.22
- binding signal (ELF2): 0.212

Sequence: CGTGGA
- binding signal (HSF1): 0.658
- binding signal (ELF2): 0.538

Sequence: CGGCGG
- binding signal (HSF1): 0.431
- binding signal (ELF2): 0.564

Sequence: GGCAAA
- binding signal (HSF1): 0.902
- binding signal (ELF2): 0.879

Sequence: GAGCGG
- binding signal (HSF1): 0.401
- binding signal (ELF2): 0.526

Sequence: GCAACG
- binding signal (HSF1): 0.79
- binding signal (ELF2): 0.949

Sequence: GGAGGC
- binding signal (HSF1): 0.216
- binding signal (ELF2): 0.239

Sequence: GCAGTT
- binding signal (HSF1): 0.656
- binding signal (ELF2): 0.858

Sequence: TAGCCG
- binding signal (HSF1): 0.805
- binding signal (ELF2): 0.881

Sequence: CCGTTG
- binding signal (HSF1): 0.704
- binding signal (ELF2): 0.839

Sequence: GGGTCG
- binding signal (HSF1): 0.475
- binding signal (ELF2): 0.571

Sequence: CAGTGA
- binding signal (HSF1): 0.339
- binding signal (ELF2): 0.326

Sequence: GCCAAG
- binding signal (HSF1): 0.777
- binding signal (ELF2): 0.82

Sequence: GGGTAC
- binding signal (HSF1): 0.734
- binding signal (ELF2): 0.927
